Test results taken from the supplement of paper PMC3334620.
In all, about 33,000 sequences were measured (“E-score (-0.5 to 0.5)”: median about -0.015, highest 2% from about 0.3 on). The list shows a part of the results.

molecular target: T1, Abf1 (UniProt P14164); assay: PBM E-score (8-mer binding enrichment) (E-score (-0.5 to 0.5)); higher = stronger / more preferred TF binding; details: protein concentration: 200 nM; construct: GST-full length
T1 sequence: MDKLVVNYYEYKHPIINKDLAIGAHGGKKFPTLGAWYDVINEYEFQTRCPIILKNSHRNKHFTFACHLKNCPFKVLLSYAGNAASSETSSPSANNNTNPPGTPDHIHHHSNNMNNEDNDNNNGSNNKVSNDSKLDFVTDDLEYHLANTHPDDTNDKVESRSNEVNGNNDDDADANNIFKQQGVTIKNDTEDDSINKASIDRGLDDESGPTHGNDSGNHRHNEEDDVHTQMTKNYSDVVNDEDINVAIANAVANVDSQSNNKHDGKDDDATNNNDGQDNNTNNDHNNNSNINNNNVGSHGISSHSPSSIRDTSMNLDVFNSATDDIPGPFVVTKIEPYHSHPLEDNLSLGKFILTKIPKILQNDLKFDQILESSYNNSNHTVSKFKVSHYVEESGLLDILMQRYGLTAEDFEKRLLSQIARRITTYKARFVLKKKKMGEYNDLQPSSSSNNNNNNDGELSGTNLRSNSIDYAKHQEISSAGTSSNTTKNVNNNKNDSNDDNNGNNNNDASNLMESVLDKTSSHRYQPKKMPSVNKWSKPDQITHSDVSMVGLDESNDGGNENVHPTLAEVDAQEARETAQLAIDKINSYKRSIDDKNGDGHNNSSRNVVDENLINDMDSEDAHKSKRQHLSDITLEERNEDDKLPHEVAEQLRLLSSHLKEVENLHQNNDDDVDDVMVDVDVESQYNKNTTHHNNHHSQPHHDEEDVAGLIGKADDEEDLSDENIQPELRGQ
How it was run: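 PURExpress in vitro transcription/translation supplied GST-tagged yeast transcription factors, either full-length or DNA-binding domain. Applied at about 100-200 nM to universal all-10-mer Agilent arrays double-stranded by primer extension, the bound protein was detected with fluorescent anti-GST. E-scores, modified Wilcoxon-Mann-Whitney statistics, were given by the Universal PBM Analysis Suite to ungapped eight-base words pooled with their reverse complements after masliner normalisation.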

In order of falling “PBM E-score” value:
1. CACGGTGA  0.308
2. ATCGACGA  0.291
3. ACAGTGAC  0.259
4. GTTCGTGA  0.254
5. GACCGTAC  0.247
6. AGTACGTA  0.238
7. ATATTATC  0.224
8. ACGTCACC  0.22
9. ATCATACC  0.205
10. GACTTCGC  0.196
11. GACATGTC  0.187
12. ATTATCTA  0.185
13. CGTCAATA  0.185
14. ATTTGGCG  0.162
15. TCAGTCGA  0.149
16. AACCGTGA  0.14
17. AGGTATTC  0.135
18. ACCGAACG  0.133
19. ATATACTA  0.13
20. AAGAAACG  0.128
21. CGGTTTTC  0.126
22. ATGGATCA  0.122
23. AGTTTTAA  0.12
24. ACACACGC  0.118
25. GTGGGACA  0.118
26. CGTAACTA  0.118
27. CCCGTGTA  0.116
28. TGGCTTAA  0.115
29. ATCGACAT  0.113
30. AAAAAACA  0.11
31. ACCAATAT  0.109
32. GAACTATC  0.0972
33. GTGACCGA  0.0963
34. ATGTACCG  0.094
35. ACTCTGCG  0.0935
36. ATCCTATA  0.0917
37. AACTGTAA  0.0911
38. AAGTCAGC  0.0842
39. AGAGCTTA  0.0841
40. GATTACAC  0.0768
41. CGCATTAC  0.0726
42. ACGAAGCG  0.0722
43. CGATAATC  0.0719
44. ATCTCATA  0.071
45. ACTGTCCT  0.0698
46. ACCTCATC  0.0693
47. CTGTTTGA  0.0686
48. AATACCAC  0.0643
49. ATGTCCAC  0.0602
50. GTAAAAAC  0.0597
51. AAGAGACG  0.0591
52. AGTATATC  0.0567
53. CCCTAGAC  0.0508
54. ATGTAAAG  0.0506
55. ATGTAGGA  0.0486
56. ATTGCCAG  0.0477
57. AGTCGCTA  0.0472
58. TCGCTAGA  0.046
59. CTCTGGAC  0.0454
60. ACCTTCAC  0.0414
61. CTCAGAAA  0.0389
62. GTTATGCA  0.0389
63. GTGCACAC  0.0386
64. CAGCATAG  0.0372
65. CATATCCA  0.0365
66. AGCGCCCT  0.0338
67. CCTGTGGC  0.0325
68. GCGCGAAA  0.0315
69. AGACTCGA  0.0276
70. CAGGTCCA  0.025
71. ACGCAATG  0.0245
72. GCATAAGA  0.0214
73. CGTTCGGC  0.0205
74. CAGACTAA  0.0203
75. AAAAGAGC  0.0141
76. GCGCTAGA  0.00806
77. ACCTCGCA  0.00639
78. ATTATGGG  0.00349
79. ATAGTACC  0.00303
80. CCTAAACG  -0.0063
81. ATAGCGCG  -0.0064
82. AATTTCGG  -0.0083
83. CACTGAAA  -0.00858
84. CTCGCTCC  -0.00865
85. CTGGTACC  -0.0127
86. AGGCTACG  -0.0128
87. ACGCGGGC  -0.0155
88. CCTGAGAA  -0.0164
89. AACAGGCT  -0.0175
90. GACCGACC  -0.0208
91. GAGACCTC  -0.0238
92. AGCGAGCA  -0.0257
93. ATAGCACC  -0.0261
94. CGCTGTTC  -0.0263
95. AATACGCA  -0.0279
96. GCAAGGGA  -0.0292
97. AGTTGTTG  -0.0372
98. AAATCAAC  -0.0454
99. CGGGCTTA  -0.0475
100. GTCGCCTA  -0.0479
101. AAATTTTG  -0.0483
102. CTGTCCGA  -0.0488
103. AGCGGGTG  -0.0513
104. CGCCATAG  -0.0608
105. AAGGTTCA  -0.0622
106. TTCGCCAA  -0.0672
107. GCTCGGAA  -0.0698
108. CATGACGC  -0.0731
109. ATCCCCAC  -0.0733
110. CAGAACCG  -0.0771
111. CGGACCCG  -0.0838
112. TAGCCCAA  -0.0858
113. TAACTCTA  -0.0858
114. CGGCCATA  -0.0898
115. AGTACGCA  -0.0914
116. CTCGGCGC  -0.0963
117. AAGAGTAT  -0.101
118. CTAATCCA  -0.104
119. AACAGCAA  -0.106
120. CAACAAAC  -0.112
121. GGCTACCC  -0.115
122. AGCACAGC  -0.116
123. CATAGCCA  -0.118
124. CCGACTAC  -0.119
125. CGGCTCTA  -0.122
126. CCCGGAAC  -0.125
127. ACCCGGAC  -0.134
128. CTCGGCTA  -0.134
129. AGCTGTGG  -0.134
130. CAGAGCGG  -0.136
131. CACCACTG  -0.144
132. CAGAGTCG  -0.146
133. AGGTCTTA  -0.146
134. ACTTCTGC  -0.149
135. CGCCAAGC  -0.149
136. ACACTCTG  -0.152
137. GAAGGCGA  -0.153
138. ACTTGTTG  -0.157
139. CAAGTCCC  -0.164
140. ATGCGGAC  -0.167
141. GAGGCCGC  -0.168
142. CACAAGAC  -0.168
143. AAGAGGCC  -0.173
144. GGATCCGA  -0.177
145. CATCGGCG  -0.18
146. CAAATCCC  -0.184
147. AATGTAGG  -0.184
148. CCTGCCTA  -0.185
149. AGTCCCTG  -0.186
150. AGCACTGC  -0.191
151. GGTAGACC  -0.195
152. GGTACCAC  -0.2
153. GCTTCTCC  -0.201
154. CTAGGCCC  -0.222
155. AAGGAGTG  -0.226
156. CAAGACCA  -0.237
157. CAAAGTGG  -0.238
158. CGAGCCAA  -0.246
159. CTACCATC  -0.252
160. CCAGGGAC  -0.253
161. ACACCAGG  -0.259
162. GCTGCACC  -0.267
163. CCACGGAC  -0.292
164. CTTGCGCC  -0.297
165. AGGCCGAC  -0.298
166. CTTACCCC  -0.303
167. CCGCCACC  -0.31
168. AAGCCTGG  -0.315
169. GCTCCCTA  -0.33
170. AAGGAGGC  -0.345
171. CAGAACAC  -0.409
172. TTGGCCAA  -0.429
